Experimental data reported in the supplement of paper PMC12889115.
The other results are listed elsewhere or left out. These are raw signals, not scaled to a control.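 First-pass screen: polymyxin B was added at a level that permeabilizes the Salmonella outer membrane while sparing the inner membrane. DMSO wells, with and without polymyxin B, defined maximum growth. Because plates differed from one another, each plate's data were ranked separately and the compounds with the lowest OD600 were carried forward as hits.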

System: Salmonella enterica serovar Typhimurium SL1344
Assay: bacterial growth OD600 after 18 h with compound and polymyxin B; higher = more bacterial growth (less inhibition)
Conditions: 50 µM, Mueller-Hinton broth

SMILES | bacterial growth OD600 (polymyxin B 1 µg/mL) | bacterial growth OD600 (polymyxin B 0.75 µg/mL)
C=C(C)CNc1ccc(C(=O)N(CC)Cc2nccn2C)cn1 | 0.988 | 
O=C(NCCC1CCCCO1)c1coc(COc2cccc(F)c2)n1 (stereo not given) | 0.972 | 
C=CCNC1CCN(c2ccc(NC(=O)CCc3ccccc3)cc2)CC1 |  | 0.788
COc1ccc([C@@H]2C[C@H]3CN(Cc4ccccc4C)C(=O)[C@]34CCCN24)cc1O | 0.884 | 
O=C(NCCc1ccc(F)cc1)c1cn(C2CCCC2)cc(C(=O)N2CCCCC2)c1=O |  | 0.841
C=C(C)CN(C)C(=O)CC(c1ccccc1)c1ccc(OC)cc1 (stereo not given) | 0.029 | 
COCCN1CCCC2(CCN(C(=O)CCc3cccs3)C2)C1=O (stereo not given) | 1.07 | 
CCN1CCN(C2(C(=O)NCCC3CCCCO3)Cc3ccccc3C2)CC1 (stereo not given) |  | 0.975
COc1cccc(OCC(O)CN2C(=O)CCC2CCNCc2cc3c(cc2Cl)OCO3)c1 (stereo not given) |  | 0.933
O=C(CCc1ccc(=O)[nH]n1)N1CCCC(CNC(=O)C2(c3ccc(Cl)cc3)CC2)C1 (stereo not given) | 0.713 | 
CCCN1CCCC1C(=O)Nc1ccccc1-c1ccc(OC)cc1 (stereo not given) |  | 0.004
O=C(CC(c1ccccc1)c1ccc2c(c1)OCO2)NCCc1c[nH]cn1 (stereo not given) |  | 0.756
CCOc1cc(CN2CCCC(CO)(Cc3ccccc3F)C2)ccc1OC (stereo not given) | 0.787 | 
CCc1csc(CNC(=O)c2ccc(N(C)CC3CCCO3)nc2)n1 (stereo not given) | 1.14 | 
CCN(CC)C(=O)Cn1cc(C(=O)N(C)Cc2n[nH]c3c2CCCC3)nn1 | 0.905 | 
CCC1CN(CC(=O)N2CCN(c3ccc(Cl)cn3)CC2)Cc2cc(OC)ccc2O1 (stereo not given) |  | 0.493
Cc1occc1C(=O)N(C)C(Cc1ccccc1)C1CCN(C(=O)c2cnn(-c3ccccc3)c2)CC1 (stereo not given) |  | 0.301
COc1cc(CNC2CCN(c3ccc(C(=O)NC(C)c4ccccc4)cc3)CC2)cc(OC)c1 (stereo not given) |  | 0.788
CN1CCC(CN(CCc2ccccc2)C(=O)/C=C/c2ccccn2)CC1 | 0.829 | 
CN(CC1CCCN(CCc2ccc(Cl)cc2)C1)C(=O)C1=CCCC1 (stereo not given) | 0.92 | 
COC(=O)CCC(=O)N1CCCC(CCc2ccc(OC)cc2)C1 (stereo not given) |  | 0.743
CO[C@H]1[C@H](NC(=O)c2ccncc2)c2ccccc2C12CCN(C(=O)CCc1scnc1C)CC2 |  | 0.847
OCC1(CCOc2ccccc2)CCN(Cc2cc3c(cc2Cl)OCO3)CC1 | 0.756 | 
COc1cc(CC2(CCC(=O)NC(C)Cc3cccs3)CCC(=O)N2)ccc1F (stereo not given) |  | 0.748
O=C(CCc1ccc2c(c1)OCO2)NC1CC(=O)N(CC2CCCCC2)C1 (stereo not given) | 0.917 | 
COc1cccc2c1OCC(NCCc1ccc(C(F)(F)F)cc1)C2 (stereo not given) |  | 0.517
COc1ccccc1C1(CC(=O)N(Cc2c(C)nn(C)c2C)C2CC2)CC(=O)N(C)C1=O (stereo not given) |  | 1.02
CCC1CN(CC(=O)NCC2CCN(C(C)C)CC2)Cc2cc(OC)ccc2O1 (stereo not given) |  | 0.831
CN(C)C(=O)c1ccc(N2CCC(NCc3ccccc3OC(F)(F)F)CC2)cc1 |  | 0.724
CC(C)n1cc(C(=O)NC2CCCCCC2)c(=O)c(C(=O)N2CCSCC2)c1 |  | 0.888

Some of the entries so far, as a markdown table.

| SMILES | bacterial growth OD600 (polymyxin B 1 µg/mL) | bacterial growth OD600 (polymyxin B 0.75 µg/mL) |
| --- | --- | --- |
| CN(CC1CCCN(CCc2ccc(Cl)cc2)C1)C(=O)C1=CCCC1 (stereo not given) | 0.92 |  |
| OCC1(CCOc2ccccc2)CCN(Cc2cc3c(cc2Cl)OCO3)CC1 | 0.756 |  |
